Results are given in words; binding and its absence hold for the method and conditions named. In cells and extracts the contact can be indirect. A yes stands for co-enrichment or nearness to the bait. Other partners may have been found. For some of these results: Sequences can lack the tags named with a protein.
T1: Pab2, split-tag bait (second purification step) (S. pombe) (UniProt O14327)
T1 sequence: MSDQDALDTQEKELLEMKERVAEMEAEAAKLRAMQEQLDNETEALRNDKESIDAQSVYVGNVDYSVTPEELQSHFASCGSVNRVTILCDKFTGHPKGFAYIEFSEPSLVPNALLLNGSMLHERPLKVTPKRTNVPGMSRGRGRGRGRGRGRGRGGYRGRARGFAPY

T2: Cbc1, split-tag bait (second purification step) (S. pombe) (UniProt O14253)
T2 sequence: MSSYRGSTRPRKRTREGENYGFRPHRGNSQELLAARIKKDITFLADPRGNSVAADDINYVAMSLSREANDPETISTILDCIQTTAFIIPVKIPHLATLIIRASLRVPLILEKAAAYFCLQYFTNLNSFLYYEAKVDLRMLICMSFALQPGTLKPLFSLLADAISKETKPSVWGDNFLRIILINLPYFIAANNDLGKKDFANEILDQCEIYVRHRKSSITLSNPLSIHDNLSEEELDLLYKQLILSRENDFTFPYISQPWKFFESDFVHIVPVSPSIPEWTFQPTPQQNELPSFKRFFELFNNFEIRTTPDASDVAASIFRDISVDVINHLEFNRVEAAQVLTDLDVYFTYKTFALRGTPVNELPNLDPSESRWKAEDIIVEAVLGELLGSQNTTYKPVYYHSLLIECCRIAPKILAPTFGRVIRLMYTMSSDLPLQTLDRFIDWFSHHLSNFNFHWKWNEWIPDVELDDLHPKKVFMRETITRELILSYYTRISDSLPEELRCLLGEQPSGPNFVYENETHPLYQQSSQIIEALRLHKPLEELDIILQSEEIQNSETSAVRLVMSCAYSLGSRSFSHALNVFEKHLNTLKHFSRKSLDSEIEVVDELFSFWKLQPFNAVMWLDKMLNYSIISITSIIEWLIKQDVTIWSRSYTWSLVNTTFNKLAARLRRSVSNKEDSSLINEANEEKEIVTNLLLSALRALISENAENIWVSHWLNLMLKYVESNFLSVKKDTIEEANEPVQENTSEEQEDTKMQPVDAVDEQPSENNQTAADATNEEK

T3: Red1–FTP (S. pombe) (UniProt Q9UTR8)
T3 sequence: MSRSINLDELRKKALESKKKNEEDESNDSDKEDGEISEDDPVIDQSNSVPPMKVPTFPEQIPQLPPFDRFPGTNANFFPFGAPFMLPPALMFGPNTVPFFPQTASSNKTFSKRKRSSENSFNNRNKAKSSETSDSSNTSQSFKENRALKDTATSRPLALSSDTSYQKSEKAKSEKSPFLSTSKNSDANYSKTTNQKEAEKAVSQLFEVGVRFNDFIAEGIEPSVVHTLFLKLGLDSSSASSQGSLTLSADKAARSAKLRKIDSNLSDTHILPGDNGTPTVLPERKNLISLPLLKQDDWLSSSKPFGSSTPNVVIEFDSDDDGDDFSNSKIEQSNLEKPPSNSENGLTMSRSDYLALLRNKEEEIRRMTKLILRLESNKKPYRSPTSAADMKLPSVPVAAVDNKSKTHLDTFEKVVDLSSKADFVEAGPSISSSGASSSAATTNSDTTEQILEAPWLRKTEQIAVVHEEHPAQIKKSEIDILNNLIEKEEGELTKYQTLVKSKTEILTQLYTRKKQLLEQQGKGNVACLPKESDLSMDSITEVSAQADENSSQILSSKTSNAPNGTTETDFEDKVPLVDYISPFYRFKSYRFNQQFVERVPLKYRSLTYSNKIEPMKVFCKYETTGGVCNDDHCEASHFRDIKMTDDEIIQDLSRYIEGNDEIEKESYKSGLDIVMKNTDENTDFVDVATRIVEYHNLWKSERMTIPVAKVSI


Legend:
[1] = target: T1, Pab2, split-tag bait (second purification step) (S. pombe); test: affinity purification with mass spectrometry; split-tag purification: first step by Mtl1, second step by Iss10, Cbc1 or Pab2; from S. pombe cell extract
[2] = target: T2, Cbc1, split-tag bait (second purification step) (S. pombe); test: as above
Red1–FTP (S. pombe) = target: T3, Red1–FTP (S. pombe); test: affinity purification with mass spectrometry; tandem affinity purification of an FTP-tagged bait from S. pombe cell extract (IgG beads, TEV cleavage with Benzonase, anti-Flag beads, Flag peptide elution); 50 mM HEPES pH 7.0, 100 mM NaCl, 1.5 mM MgCl2, 0.15% NP-40; MALDI-TOF of single bands and LC-MS/MS of the whole eluate; wild-type cells, also red1Δ and rmn1Δ backgrounds
[3] = target: Mtl1, split-tag bait (first purification step) (S. pombe); test: affinity purification with mass spectrometry; split-tag purification: first step by Mtl1, second step by Iss10, Cbc1 or Pab2; from S. pombe cell extract
[4] = target: Iss10, split-tag bait (second purification step) (S. pombe); test: as above
Mtl1–FTP (S. pombe) = test: affinity purification with mass spectrometry; tandem affinity purification of an FTP-tagged bait from S. pombe cell extract (IgG beads, TEV cleavage with Benzonase, anti-Flag beads, Flag peptide elution); 50 mM HEPES pH 7.0, 100 mM NaCl, 1.5 mM MgCl2, 0.15% NP-40; MALDI-TOF of single bands and LC-MS/MS of the whole eluate; wild-type cells, also red1Δ and rmn1Δ backgrounds
Red5–FTP (S. pombe) = test: as above

binding [1]	binding [2]	binding (Red1–FTP (S. pombe))	binding [3]	binding [4]	binding (Mtl1–FTP (S. pombe))	binding (Red5–FTP (S. pombe))	Molecule
binds	binds						Rmn1 (S. pombe (endogenous))
binds	binds	binds	binds	binds	binds		canonical poly(A) polymerase Pla1 (enzyme, UniProt Q10295 1-566) MTTKQWGITPPISTAPATEQENALNTALINELKNQNLFESPAESEKRVKVLDELQQITTEFVKKVSLAKHMNEKMANEAGGKIFTYGSYRLGVYGPGSDIDTLVVVPKHVSRDNFFQDLEPMLREREEVTDLAAVPDAYVPIIKFKFLGISIDLIFARLSVPRVPRDLELSDNNLLKGVEERCVLSLNGTRVTDQILQLVPNRAVFKHALRAIKFWAQRRAIYANVVGFPGGVAWAMMVARICQLYPNAVSSVIVAKFFRILHQWNWPQPILLKPIEDGPLQVRIWNPKLYPSDKAHRMPIITPAYPSMCATHNITLSTQTIILREMVRAGEIADQIMVKALPWSALFQKHDFFHRYKHYLTITAAAKTAEAQLKWAGLVESKLRHLVTRLELVDAIALAHPFNKGFDKVYNCSSEEEAQQVASGVTLEVAYESTDHEKLANDTVNEEKADNTESKADGSENGEKQIFPVYTTTCYIGLELEKKKGHPIKRLDISWPTQEFYELCKKWDKYDDTLMNVFIKNTKNTALPDEVFEPGEERPKATKKRSTADTAHSTEQLKRQKVSTA
					binds		mRNA cleavage factor complex subunit SPBC660.15 (protein, UniProt O94432 1-474) MGGSDFEDDELFKDLYGEENEKKVESASGNQETSNVTPTKENEGYEELEKSGEAGAERTKENPFREEPGADFDRSGSDQQYSAEAEANQEDDLNETSQQAPDPSSYDIRGQALSSATWDNAEDGENSKNDNYNENQSALTGSGAMESNEDNAEETSPFNREDGKMFIGGLNWETTDDSLRDYFEQFGEVLDCTVMRDSTTGRSRGFGFLTFKNPKCVNEVMSKEHHLDGKIIDPKRAIPREEQEKTAKMFVGGVPGDCTEEEFRNFFNQFGRVLDATLMMDKDTGRPRGFGFVTYENESAVEATMSQPYITIHGKPVEVKRATPKASLRDSHDRHQHGYHGNANPYYAQNMNMYGGMTPAMMAQYYRQMQQYMEAMRNMPAAAGAVPYPQPVMPAGMADWQQQQQQGAAYFDPSKMNQGTGDGVPFSPSMPSGSSRGGYHGRNPGGPNRQRYRGRRDGRGGNTGGGHSFHPYRR

Further lines, the molecule ahead of its results:

Molecule	binding [1]	binding [2]	binding (Red1–FTP (S. pombe))	binding [3]	binding [4]	binding (Mtl1–FTP (S. pombe))	binding (Red5–FTP (S. pombe))
Red5 (S. pombe (endogenous))	binds	binds					
Iss10 (S. pombe (endogenous))	binds	binds	binds				
Pab2 (protein, UniProt O14327 1-166) MSDQDALDTQEKELLEMKERVAEMEAEAAKLRAMQEQLDNETEALRNDKESIDAQSVYVGNVDYSVTPEELQSHFASCGSVNRVTILCDKFTGHPKGFAYIEFSEPSLVPNALLLNGSMLHERPLKVTPKRTNVPGMSRGRGRGRGRGRGRGRGGYRGRARGFAPY		binds	binds	binds	binds	binds	binds
Cbc1, split-tag bait (second purification step) (protein, UniProt O14253 1-780) MSSYRGSTRPRKRTREGENYGFRPHRGNSQELLAARIKKDITFLADPRGNSVAADDINYVAMSLSREANDPETISTILDCIQTTAFIIPVKIPHLATLIIRASLRVPLILEKAAAYFCLQYFTNLNSFLYYEAKVDLRMLICMSFALQPGTLKPLFSLLADAISKETKPSVWGDNFLRIILINLPYFIAANNDLGKKDFANEILDQCEIYVRHRKSSITLSNPLSIHDNLSEEELDLLYKQLILSRENDFTFPYISQPWKFFESDFVHIVPVSPSIPEWTFQPTPQQNELPSFKRFFELFNNFEIRTTPDASDVAASIFRDISVDVINHLEFNRVEAAQVLTDLDVYFTYKTFALRGTPVNELPNLDPSESRWKAEDIIVEAVLGELLGSQNTTYKPVYYHSLLIECCRIAPKILAPTFGRVIRLMYTMSSDLPLQTLDRFIDWFSHHLSNFNFHWKWNEWIPDVELDDLHPKKVFMRETITRELILSYYTRISDSLPEELRCLLGEQPSGPNFVYENETHPLYQQSSQIIEALRLHKPLEELDIILQSEEIQNSETSAVRLVMSCAYSLGSRSFSHALNVFEKHLNTLKHFSRKSLDSEIEVVDELFSFWKLQPFNAVMWLDKMLNYSIISITSIIEWLIKQDVTIWSRSYTWSLVNTTFNKLAARLRRSVSNKEDSSLINEANEEKEIVTNLLLSALRALISENAENIWVSHWLNLMLKYVESNFLSVKKDTIEEANEPVQENTSEEQEDTKMQPVDAVDEQPSENNQTAADATNEEK				binds			
Pab2, split-tag bait (second purification step) (protein, UniProt O14327 1-166) MSDQDALDTQEKELLEMKERVAEMEAEAAKLRAMQEQLDNETEALRNDKESIDAQSVYVGNVDYSVTPEELQSHFASCGSVNRVTILCDKFTGHPKGFAYIEFSEPSLVPNALLLNGSMLHERPLKVTPKRTNVPGMSRGRGRGRGRGRGRGRGGYRGRARGFAPY				binds			
Red1 (protein, UniProt Q9UTR8 1-712) MSRSINLDELRKKALESKKKNEEDESNDSDKEDGEISEDDPVIDQSNSVPPMKVPTFPEQIPQLPPFDRFPGTNANFFPFGAPFMLPPALMFGPNTVPFFPQTASSNKTFSKRKRSSENSFNNRNKAKSSETSDSSNTSQSFKENRALKDTATSRPLALSSDTSYQKSEKAKSEKSPFLSTSKNSDANYSKTTNQKEAEKAVSQLFEVGVRFNDFIAEGIEPSVVHTLFLKLGLDSSSASSQGSLTLSADKAARSAKLRKIDSNLSDTHILPGDNGTPTVLPERKNLISLPLLKQDDWLSSSKPFGSSTPNVVIEFDSDDDGDDFSNSKIEQSNLEKPPSNSENGLTMSRSDYLALLRNKEEEIRRMTKLILRLESNKKPYRSPTSAADMKLPSVPVAAVDNKSKTHLDTFEKVVDLSSKADFVEAGPSISSSGASSSAATTNSDTTEQILEAPWLRKTEQIAVVHEEHPAQIKKSEIDILNNLIEKEEGELTKYQTLVKSKTEILTQLYTRKKQLLEQQGKGNVACLPKESDLSMDSITEVSAQADENSSQILSSKTSNAPNGTTETDFEDKVPLVDYISPFYRFKSYRFNQQFVERVPLKYRSLTYSNKIEPMKVFCKYETTGGVCNDDHCEASHFRDIKMTDDEIIQDLSRYIEGNDEIEKESYKSGLDIVMKNTDENTDFVDVATRIVEYHNLWKSERMTIPVAKVSI	binds	binds			binds		

Reference: article PMC4455066
